Laboratory results from patent US20110229981A1.
These are yes or no findings as the source states them, for the method shown. Some results given as binding are weak or reduced against the parent protein; the word gives no strength.

The chains behind the UniProt entries cited, without tags or fusion partners. Where a name states a change or a piece, a line headed by the entry shows the natural chain unless it says otherwise. Residues count along the entry.
UniProt Q9HCN6: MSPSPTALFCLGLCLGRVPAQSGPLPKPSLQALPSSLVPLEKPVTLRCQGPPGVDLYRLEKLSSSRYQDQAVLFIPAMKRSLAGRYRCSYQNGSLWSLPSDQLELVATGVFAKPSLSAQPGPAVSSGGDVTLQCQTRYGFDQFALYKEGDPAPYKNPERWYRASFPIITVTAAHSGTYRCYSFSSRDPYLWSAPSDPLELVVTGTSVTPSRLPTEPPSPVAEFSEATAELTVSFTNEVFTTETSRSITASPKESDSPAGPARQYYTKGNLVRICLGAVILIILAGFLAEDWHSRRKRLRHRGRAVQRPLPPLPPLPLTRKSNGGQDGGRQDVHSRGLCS
recombinant GPVI monomers: residues 21-269 of Q9HCN6
shed GPVI (soluble GPVI in plasma): residues 21-267 of Q9HCN6

Legend:
[1] = target: shed GPVI (soluble GPVI in plasma) (human) (UniProt Q9HCN6); assay: cytometric bead assay, antibody-coupled bead captures, fluorescent convulxin detects
recombinant GPVI dimers = recombinant GPVI dimers (UniProt Q9HCN6); assay: cytometric bead assay, anti-GPVI bead (3j24.2 or 9O12.2) captures, fluorescent convulxin detects
[2] = target: recombinant GPVI monomers (UniProt Q9HCN6); assay: as above

Measured: binding

B1: convulxin, fluorescently labeled (ligand)
chain 1: GLHCPSDWYYYDQHCYRIFNEEMNWEDAEWFCTKQAKGAHLVSIKSAKEADFVAWMVTQNIEESFSHVSIGLRVQNKEKQCSTKWSDGSSVSYDNLLDLYITKCSLLKKETGFRKWFVASCIGKIPFVCKFPPQC
chain 2: GFCCPSHWSSYDRYCYKVFKQEMTWADAEKFCTQQHTGSHLVSFHSTEEVDFVVKMTHQSLKSTFFWIGANNIWNKCNWQWSDGTKPEYKEWHEEFECLISRTFDNQWLSAPCSDTYSFVCKFEA
modifications: fluorescent label, site not stated
binds: all assays above
